Results from paper PMC13316410.
No constants are given. Whether binding was seen depends on the method and setting. For some of these results: In cells and extracts the contact can be indirect. Some binding calls cover weakened binding; strength is not graded here.

Assays:
[1] = biological target: His-TOE1 F148Y (PCH7-linked variant), recombinant from E. coli (human) (UniProt Q96GM8); assay: SEC; Superdex 200 Increase, 50 mM HEPES pH 8.0, 250 mM NaCl, 2% glycerol, 5 mM MgCl2, 1 mM DTT; size from the calibration of the column; recombinant TOE1 from E. coli; both purified
[2] = biological target: TOE1 wildtype, HA-tagged (bait) and MYC-tagged (prey) copies overexpressed in HEK293T cells (human) (UniProt Q96GM8); assay: co-IP; HEK293T cells co-transfected with HA-tagged bait TOE1 and MYC-tagged prey TOE1 (WT or F148Y); clarified lysate (50 mM HEPES pH 8.0, 5 mM MgCl2, 200 mM NaCl, 10% glycerol, 0.05% IGEPAL CA-630, 2 mM PMSF) on anti-HA agarose resin; blots with anti-MYC and anti-HA
[3] = biological target: TOE1 F148Y, HA-tagged (bait) and MYC-tagged (prey) copies overexpressed in HEK293T cells (human) (UniProt Q96GM8); assay: as above

Substance | binding [1] | binding [2] | binding [3]
His-TOE1 F148Y (PCH7-linked variant), recombinant from E. coli (from UniProt Q96GM8 1-510) (enzyme) | no binding |  | 
TOE1 F148Y, HA-tagged (bait) and MYC-tagged (prey) copies overexpressed in HEK293T cells (from UniProt Q96GM8 1-510) (enzyme) |  | binds | 
TOE1 wildtype, HA-tagged (bait) and MYC-tagged (prey) copies overexpressed in HEK293T cells (from UniProt Q96GM8 1-510) (enzyme) |  | binds | binds
